Measured values published in PMC7592556.
Results are given in words; binding and its absence hold for the method and conditions named. Binding seen in cells or lysates may run through a third protein. A yes stands for co-enrichment or nearness to the bait. Other partners may have been found. Each block holds one binder with its values, some of them ahead of it.

Sequences of proteins named here, by UniProt entry; tags and fusion partners are left off. Residues count along the entry.
His6-SUMO fusion protein of the complete Shank3 N-terminus (SPN-Ank, residues 1-348) (Q9JLU4, residues 1-348): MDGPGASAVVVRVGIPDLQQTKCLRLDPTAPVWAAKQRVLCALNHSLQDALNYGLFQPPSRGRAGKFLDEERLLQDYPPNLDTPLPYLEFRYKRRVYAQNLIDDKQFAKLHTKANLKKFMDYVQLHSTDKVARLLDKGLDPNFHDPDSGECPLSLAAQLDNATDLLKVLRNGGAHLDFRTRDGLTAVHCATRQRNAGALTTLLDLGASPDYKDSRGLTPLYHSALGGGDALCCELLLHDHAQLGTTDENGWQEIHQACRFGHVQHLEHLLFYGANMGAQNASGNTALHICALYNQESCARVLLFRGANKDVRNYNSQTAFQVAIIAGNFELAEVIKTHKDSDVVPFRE
His6-SUMO fusion protein of the Shank3 Ank repeats (residues 99-348) (Q9JLU4, residues 99-348): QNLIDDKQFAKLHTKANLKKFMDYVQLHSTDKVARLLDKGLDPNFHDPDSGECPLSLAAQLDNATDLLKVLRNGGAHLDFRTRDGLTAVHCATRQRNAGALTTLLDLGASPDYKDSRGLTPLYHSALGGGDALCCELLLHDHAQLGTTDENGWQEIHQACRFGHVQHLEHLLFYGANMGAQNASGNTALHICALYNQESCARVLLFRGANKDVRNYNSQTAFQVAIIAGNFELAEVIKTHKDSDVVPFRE

What was measured:
[1] = target: His6-SUMO fusion protein of the complete Shank3 N-terminus (SPN-Ank, residues 1-348) (rat) (UniProt Q9JLU4); test: affinity purification with mass spectrometry; His6-SUMO-Shank3 fragments (SPN-Ank or Ank only) coupled to NHS-Sepharose; mouse forebrain PSD fraction solubilised in DOC buffer (50 mM Tris pH 9.0, 1% Na-deoxycholate); 2 h, 5 washes; LC-MS/MS, LFQ intensities compared with a SUMO matrix; four purifications (two SPN-Ank, two Ank only); only the target purified
[2] = target: His6-SUMO fusion protein of the Shank3 Ank repeats (residues 99-348) (rat) (UniProt Q9JLU4); test: as above

binding [1]: binds
binding [2]: binds
B1: Pancreatic alpha-amylase (protein, UniProt P00688 16-508)
chain: QYDPHTSDGRTAIVHLFEWRWVDIAKECERYLAPKGFGGVQVSPPNENVVVHNPSRPWWERYQPISYKICTRSGNEDEFRDMVTRCNNVGVRIYVDAVINHMCGAGNPAGTSSTCGSYLNPNNREFPAVPYSAWDFNDNKCNGEIDNYNDAYQVRNCRLTGLLDLALEKDYVRTKVADYMNHLIDIGVAGFRLDAAKHMWPGDIKAVLDKLHNLNTKWFSQGSRPFIFQEVIDLGGEAIKGSEYFGNGRVTEFKYGAKLGTVIRKWNGEKMSYLKNWGEGWGLVPSDRALVFVDNHDNQRGHGAGGSSILTFWDARMYKMAVGFMLAHPYGFTRVMSSYRWNRNFQNGKDQNDWIGPPNNNGVTKEVTINADTTCGNDWVCEHRWRQIRNMVAFRNVVNGQPFSNWWDNNSNQVAFSRGNRGFIVFNNDDWALSATLQTGLPAGTYCDVISGDKVDGNCTGLRVNVGSDGKAHFSISNSAEDPFIAIHADSKL

binding [1]: binds
binding [2]: binds
B2: Sorbin and SH3 domain-containing protein 1 (protein, UniProt Q62417 1-1290)
chain: MSSECDVGSSKAVVNGLASGNHGPDKDMDPTKICTGKGTVTLRASSSYRGTPSSSPVSPQESPKHESKSGLEPEDPSADEWKLSSSADTNGNAQPSPLAAKGYRSVHPSLSADKPQGSPLLNEVSSSHIETDSQDFPPTSRPSSAYPSTTIVNPTIVLLQHNRDPASERRAGEQDPVPTPAELTSPGRASERRAKDASRRVVRSAQDLSDVSTDEVGIPLRNTERSKDWYKTMFKQIHKLNRDDDSDVHSPRYSFSDDTKSPLSVPRSKSEMNYIEGEKVVKRSATLPLPARSSSLKSSPERNDWEPLDKKVDTRKYRAEPKSIYEYQPGKSSVLTNEKMSRDISPEEIDLKNEPWYKFFSELEFGRPTNLEKDLSFCQAELEADLEKVETVNKSPSANSPQSSAVSPTPDITSEPPGYIYSSNFHAVKRESDGTPGGLASLENERQIYKSVLEGGDIPLQGLSGLKRPSSSASTKVDRKGGNAHMISSSSVHSRTFHTSNALGPGCKHKKPLSAAKACISEILPSKFKPRLSAPSALLQEQKSVLLPSEKAQSCENLCVSLNDSKRGLPLRVGGSIENLLMRSRRDYDSKSSSTMSLQEYGTSSRRPCPLSRKAGLHFSMFYRDMHQINRAGLSLGSISSSSVRDLASHFERSSLTLARGELGASQEGSEHIPKHTVSSRITAFEQLIQRSRSMPSLDFSGRLSKSPTPVLSRSGLTSARSAESLLESTKLRPREMDGMDSGGVYASPTCSNMADHALSFRSLVPSEPLSICSDELDHCSNVSNDSREGSGGSVHGDFPKHRLNKCKGTCPASYTRFTTIRKHEQQSSRQSDWRSDSRGDKNSLLRNIHLMSPLPFRLKKPLQQHPRQPPPSDSSESPAGQKADLPCHDPQDQPHSAGKPQVPTRLSSRHTMARLSHNSEPPLDRPAGLEDCTRAINNGNPVPYSDHGLDRNNNPQSELAAAHGDSESPRHFIPADYLESTEEFIRRRHDDKEKLLADQRRLKREQEEADIAARRHTGVIPTHHQFITNERFGDLLNIDDTAKRKSGLEMRPARAKFDFKAQTLKELPLQKGDVVYIYRQIDQNWYEGEHHGRVGIFPRTYIELLPPAEKAQPRKLAPVQVLEYGEAIAKFNFNGDTQVEMSFRKGERITLLRQVDENWYEGRIPGTSRQGIFPITYVDVLKRPLVKTPVDYIDLPYSSSPSRSATVSPQQPQAQQRRVTPDRSQPSLDLCSYQALYSYVPQNDDELELRDGDIVDVMEKCDDGWFVGTSRRTRQFGTFPGNYVKPLYL
